## Primary screen of a compound library

Mtb heat-shock: 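Assay on Mycobacterium tuberculosis, filed only as a heat shock assay from Cornell; the read-out is not stated. The concentration is filed as 10 mM, unlikely as a test dose, so the dose is not known. The record gives no direction; compounds that gave an IC50 in retests scored well above the rest, so higher reads as stronger inhibition. Of about 69,000 compounds tested this way, about 930 (1.4%) reached 50% or more in at least one test.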
Mtb growth Cornell: 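Whole-cell assay for inhibitors of Mycobacterium tuberculosis growth, labelled Cornell in the record; the read-out is not stated. The concentration is filed as 10 mM, unlikely as a test dose, so the dose is not known. Higher means stronger inhibition (inferred from two other growth screens of the library). Size under these conditions: about 53,000 compounds, about 900 of them at 50% or above in at least one test.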

Results are given as percent effect.
The record does not define 0% and 100%; most values in the screen are far below 50% and negative numbers occur (in some assays of this library far below -100).
This is an unselected part of the compounds tested.
A dash means the value is not listed here; it may have been measured.

| Compound | Mtb heat-shock | Mtb growth Cornell |
|---|---|---|
| `CC(C)c1ccc(C2CC(=O)Nc3c2cnn3C)cc1` (stereo unspecified) | -7.131% | -2.379% |
| `CC(C(=O)Nc1cccc(F)c1)N(C)CCN1CCOCC1` (stereo unspecified) | -6.052% | - |
| `Cc1ccc(S(C)(=O)=O)cc1C(=O)N(C)Cc1ccco1` | 7.131% | 12.35% |
| `Cc1[nH]ncc1CCCNC(=O)Nc1ccc2c(c1)OC1(CCCC1)O2` | -14.94% | 72.51% |
| `Cc1cccc(NC(=O)NCCCn2nc3ccccn3c2=O)c1C` | 9.771% | 19.77% |
| `CNC(=O)CN1CCN(C(=O)Nc2ccc(C)s2)CC1` | -17.43% | - |
| `CS(=O)(=O)N1CCOC2(CCN(c3nccs3)CC2)c2ccccc21` | -29.3% | 19% |
| `CCOc1ccc(C(C)NC(=O)N2CCC(C(N)=O)CC2)cc1OC` (stereo unspecified) | 4.839% | - |
| `Cc1noc(C)c1C(=O)N1CCCC(c2nccn2Cc2cscn2)C1` (stereo unspecified) | -4.146% | 14.97% |
| `Cc1ccc(NS(=O)(=O)c2cc3c(c(C(=O)O)c2)OCCO3)cc1C` | -2.549% | 14.4% |
| `O=C(O)C(F)(F)F.O=C(O)C(F)(F)F.[H][C@@]12COC[C@]1(COCc1ccncc1)CN(Cc1ccccc1OC)C2` | -12.91% | 21.2% |
| `O=C(CC1CC1)N1CCC2(CC1)CN(c1cccnc1)C(=O)CO2.O=C(O)C(F)(F)F` | 7.067% | -0.7429% |
| `CCC(CC)(CNC(=O)NC1CCCC1(C)C)S(C)(=O)=O` (stereo unspecified) | -11.53% | 30.39% |
| `CC(C)c1nnc2n1CCN(C(=O)c1ccc(OCC3CC3)cc1)C2` | 10.87% | -7.116% |
| `Cc1c[nH]nc1C1CCN(C(=O)C2CCC2)CC1` | 17.58% | 0.5164% |
| `O=C(CC1COCCN1)N1CCCN(C2Cc3ccccc3C2)CC1` (stereo unspecified) | -15.94% | 14.65% |
| `OC1CCN(CCCNc2ncccn2)CC1` | -9.387% | - |
| `O=C1CN(C(=O)C2CN(c3cccc(F)c3)CCO2)CCN1` (stereo unspecified) | 2.657% | 1.297% |
| `CC(C(=O)NCc1ccnc(N2CCCC2)c1)n1cccn1` (stereo unspecified) | -37.27% | - |
| `CS(=O)(=O)Cc1noc(CN(Cc2ccco2)c2ccccc2)n1` | 1.311% | 3.139% |
| `CC(C)C1CN(C(=O)c2cn3cc(Cl)cnc3n2)CCCN1CC1CC1` (stereo unspecified) | -10.01% | -42.22% |
| `CC(C)c1nnc(CN2CCN(C(C)c3nc(C4CC4)no3)CC2)o1` (stereo unspecified) | 8.743% | - |
| `Cc1c(C(=O)N2CCCC2c2cnn(C)c2)nnn1-c1ccccc1` (stereo unspecified) | -7.514% | 11% |
| `CC(C)c1nc2n(n1)CC(NCC(=O)NCCC1=CCCCC1)CC2` (stereo unspecified) | -20.23% | 11.59% |
| `Cl.NC(=O)COc1ccc(CNCc2ccc(F)cc2F)cc1` | -3.315% | 11.23% |
| `Cc1cccc(OCCC(=O)N(C)CC(C)C#N)c1C` (stereo unspecified) | 7.35% | -22.87% |
| `O=c1cc2c(nn1CN1CCN(c3cccc(Cl)c3)CC1)CCC2` | 25.32% | - |
| `[H][C@@]12C[C@H](c3nc(C)no3)CN(S(=O)(=O)C3CC3)[C@]1([H])CCO2` | -8.911% | 23.63% |
| `Cc1ccc(N2CCCC(NCC(=O)Nc3cc(C)nn3C)C2)nn1` (stereo unspecified) | 5.223% | -63.09% |
| `CN1N=C(C(=O)N2CCCC(CCc3cccc(F)c3)C2)CCC1=O` (stereo unspecified) | 23.7% | 16.59% |
| `Cc1cc(CNc2cncc(C(=O)N(C)C)n2)c2[nH]c(C)c(C)c2c1` | -11.36% | 7.795% |
| `Cl.Cn1nc(C2CCN(C(=O)CCN3CCOCC3)CC2)c2cccnc21` | 0.9946% | -1.779% |
| `O=C(NCc1ccc2c(c1)OCO2)Nc1cccnc1N1CCCC1` | -8.881% | - |
| `OC1(c2cn(CC3CCN(C4CCSC4)CC3)nn2)CCCC1` (stereo unspecified) | -9.023% | 0.03409% |
| `CC1CN(CC(=O)Nc2nncs2)CCN1c1nccs1` (stereo unspecified) | 23.36% | 22.17% |
| `COC(=O)c1cccc2nc([C@H]3CCN(Cc4ccccc4)C3)oc12` | -35.01% | 12.89% |
| `O=C(O)C(F)(F)F.[H][C@@]12CN(Cc3csnn3)C[C@]1([H])OCCN2c1cnccn1` | -3.56% | 7.799% |
| `O=c1cc(Cn2ccnc2)nc2n1CCCN(Cc1ccsc1)C2` | 3.429% | - |
| `CCc1ccc(C(=O)NC2CCN(c3ccn(C)n3)C2)o1` (stereo unspecified) | -57.12% | - |
| `Cn1ccnc1CN1CCCN(C(=O)c2ccc3c(c2)OCO3)CC1` | -8.318% | 4.786% |
| `Cc1cc(F)ccc1CN1CCC(O)(CN2CCCCC2)C1` (stereo unspecified) | 6.921% | 4.281% |
| `CCOc1ccnc(N[C@@H](Cc2ccccc2)C(N)=O)n1` | -18.83% | -45.46% |
| `CCc1noc(CN(C)CCC(=O)Nc2ccc(C#N)c(Cl)c2)n1` | 6.799% | -7.837% |
| `Cl.O=C(NCC1CCCO1)c1cc(-c2ccncc2)c2cnccc2n1` (stereo unspecified) | 1.215% | 14.38% |
| `O=C(O)C(F)(F)F.O=C1CCCN1Cc1ncn2c1CN(C(=O)N1CCCC1)CCC2` | -21.32% | - |
| `[H][C@@]12CC(=O)N(CC)[C@@]1([H])CCN2S(=O)(=O)c1ccccc1` | 6.813% | - |
| `CCc1cc(CN(C)C(=O)c2cnon2)on1` | -10.02% | -42.57% |
| `CC(NC(=O)CCOc1cccc(F)c1)c1nnc2n1CCC2` (stereo unspecified) | -8.657% | - |
| `CC(=O)c1ccc(N2CCCC(CO)(CCOc3ccccc3)C2)nc1` (stereo unspecified) | 8.056% | 28.84% |
| `O=C(Cc1ccc2c(c1)CCO2)N1CCCCC1Cn1cccn1` (stereo unspecified) | -11.35% | 1.54% |
| `O=C(O)CCc1cccc(C2CCCN2Cc2cccc(Cl)c2)n1` (stereo unspecified) | -17.27% | -14.32% |
| `COc1cncc(N2CCN(Cc3ccco3)CC2)n1` | -15.06% | 3.182% |
| `Cc1ccc(OCCn2cnc3oc(C)c(C(=O)O)c3c2=O)cc1` | -9.415% | - |
| `CN1CCOC(CNCc2c(Cl)nc3ccccn23)C1` (stereo unspecified) | -21.76% | -10.58% |
| `CC1CN(C)CCN1C(=O)NCCCn1ccnc1` (stereo unspecified) | 5.258% | 15.09% |
| `Cc1nn(C)cc1NC(=O)CC1CCN(CCc2ccccc2)CC1` | 9.932% | 6.464% |
| `Cc1nn(-c2ccccc2)c2c1c(C(F)F)cc(=O)n2CC(=O)O` | -7.302% | - |
| `O=C(CCCc1ncc(-c2ccccc2)o1)N1CCN(CCO)CC1` | 17.13% | -5.778% |
| `CCc1nccc(CN2CCCC(CNC(=O)c3ccccn3)C2)n1` (stereo unspecified) | -10.4% | 0.8007% |
| `CCN1CCCC1CN(Cc1ccon1)CC1CCN(CCOC)CC1` (stereo unspecified) | -27.85% | 30.33% |
| `CC(C)N(C)CC(=O)NCc1ccccc1N1CCN(C)CC1` | -30.41% | -4.203% |
| `CCNc1cc2c(nn1)CCN(C(=O)Cc1c(C)nn(C)c1C)C2` | -10.47% | -4.57% |
| `CCc1nc2ccccc2c(=O)n1CC1(O)CCN(CC(=O)OC)CC1` | -0.2162% | 13.86% |
| `Cc1cc2c(cc1NC(=O)NC(C)(C)C)OCO2` | 5.917% | 45% |
| `COc1ccccc1OC1CCN(C(=O)C2CCCN(C)C2)CC1` (stereo unspecified) | -28.53% | 21.2% |

The first 5 entries again:

Compound,Mtb heat-shock,Mtb growth Cornell
CC(C)c1ccc(C2CC(=O)Nc3c2cnn3C)cc1 (stereo unspecified),-7.131%,-2.379%
CC(C(=O)Nc1cccc(F)c1)N(C)CCN1CCOCC1 (stereo unspecified),-6.052%,-
Cc1ccc(S(C)(=O)=O)cc1C(=O)N(C)Cc1ccco1,7.131%,12.35%
Cc1[nH]ncc1CCCNC(=O)Nc1ccc2c(c1)OC1(CCCC1)O2,-14.94%,72.51%
Cc1cccc(NC(=O)NCCCn2nc3ccccn3c2=O)c1C,9.771%,19.77%

The values are deposited in ChEMBL (CHEMBL3988442, “University of Dundee, Small-Polar-MMV Screening Library” (2021)).